Laboratory results from patent US20040202659A1.
Results are given in words; binding and its absence hold for the method and conditions named. Some results given as binding are weak or reduced against the parent protein; the word gives no strength.

What was measured:
Experiment in all cases: specificity assay
[1] = biological target: PDG-A
[2] = biological target: PDG10
[3] = biological target: PDG16
[4] = biological target: PDG7
[5] = biological target: PDG8

Measured: binding

B1: AI-X16 (Fab, V domains shown)
VH: QVKLLESGGGLVHPGGSLRLSCAASGFTFDNFAMSWVRQAPGKGLEWVSGISGGGLLTHYADSVKGRFTISRNNSRNTVYLQMNSLRAEDTAVYYCVRDLGYRVLSTFTFDIWGQGTKVTVSS
VL: VVTQPASVSGSPGQSITISCTGTSSAIGNYNFVPWYQQHPGKAPKLMIYEGSKRPSGVSNRFSGSKSGNTASLTISGLQAEDEAEYYCCSYVHSSTNWVFGGGTKLTVLG
binds: all assays above

B2: AI-X24 (Fab, V domains shown)
VH: QVKLLESGGGLVHPGGSLRLSCAASGFTFDNFAMSWVRQAPGKGLEWVSGISGGGLLTHYADSVKGRFTISRNNSRNTVYLQMNSLRAEDTAVYYCVRDLGYRVLSTFTFDIWGQGTKVTVSS
VL: VVTQPASVSGSPGQSITISCTGTSSAIGNYNFVPWYQQHPGKAPKLMIYEGSKRPSGVSNRFSGSKSGNTASLTISGLQAEDEAEYYCCSYVHSSTNWVFGGGTKLTVLG
binds: all assays above
